Experimental findings from article PMC10540345 are described below.

The chains behind the UniProt entries cited, without tags or fusion partners.
UniProt P54578: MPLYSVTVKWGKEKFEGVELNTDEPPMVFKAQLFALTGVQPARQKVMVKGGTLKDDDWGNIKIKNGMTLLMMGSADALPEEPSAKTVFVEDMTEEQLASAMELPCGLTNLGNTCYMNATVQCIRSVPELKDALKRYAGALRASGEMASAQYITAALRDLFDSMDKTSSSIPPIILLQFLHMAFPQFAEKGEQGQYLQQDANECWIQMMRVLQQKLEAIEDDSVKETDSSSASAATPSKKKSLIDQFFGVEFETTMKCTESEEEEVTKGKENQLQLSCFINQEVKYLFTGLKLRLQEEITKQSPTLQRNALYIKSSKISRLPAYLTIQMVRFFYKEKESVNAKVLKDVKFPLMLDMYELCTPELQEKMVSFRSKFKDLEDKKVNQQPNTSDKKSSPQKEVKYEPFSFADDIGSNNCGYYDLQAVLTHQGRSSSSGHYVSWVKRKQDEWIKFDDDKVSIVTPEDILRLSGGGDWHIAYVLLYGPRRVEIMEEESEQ
UniProt P35579: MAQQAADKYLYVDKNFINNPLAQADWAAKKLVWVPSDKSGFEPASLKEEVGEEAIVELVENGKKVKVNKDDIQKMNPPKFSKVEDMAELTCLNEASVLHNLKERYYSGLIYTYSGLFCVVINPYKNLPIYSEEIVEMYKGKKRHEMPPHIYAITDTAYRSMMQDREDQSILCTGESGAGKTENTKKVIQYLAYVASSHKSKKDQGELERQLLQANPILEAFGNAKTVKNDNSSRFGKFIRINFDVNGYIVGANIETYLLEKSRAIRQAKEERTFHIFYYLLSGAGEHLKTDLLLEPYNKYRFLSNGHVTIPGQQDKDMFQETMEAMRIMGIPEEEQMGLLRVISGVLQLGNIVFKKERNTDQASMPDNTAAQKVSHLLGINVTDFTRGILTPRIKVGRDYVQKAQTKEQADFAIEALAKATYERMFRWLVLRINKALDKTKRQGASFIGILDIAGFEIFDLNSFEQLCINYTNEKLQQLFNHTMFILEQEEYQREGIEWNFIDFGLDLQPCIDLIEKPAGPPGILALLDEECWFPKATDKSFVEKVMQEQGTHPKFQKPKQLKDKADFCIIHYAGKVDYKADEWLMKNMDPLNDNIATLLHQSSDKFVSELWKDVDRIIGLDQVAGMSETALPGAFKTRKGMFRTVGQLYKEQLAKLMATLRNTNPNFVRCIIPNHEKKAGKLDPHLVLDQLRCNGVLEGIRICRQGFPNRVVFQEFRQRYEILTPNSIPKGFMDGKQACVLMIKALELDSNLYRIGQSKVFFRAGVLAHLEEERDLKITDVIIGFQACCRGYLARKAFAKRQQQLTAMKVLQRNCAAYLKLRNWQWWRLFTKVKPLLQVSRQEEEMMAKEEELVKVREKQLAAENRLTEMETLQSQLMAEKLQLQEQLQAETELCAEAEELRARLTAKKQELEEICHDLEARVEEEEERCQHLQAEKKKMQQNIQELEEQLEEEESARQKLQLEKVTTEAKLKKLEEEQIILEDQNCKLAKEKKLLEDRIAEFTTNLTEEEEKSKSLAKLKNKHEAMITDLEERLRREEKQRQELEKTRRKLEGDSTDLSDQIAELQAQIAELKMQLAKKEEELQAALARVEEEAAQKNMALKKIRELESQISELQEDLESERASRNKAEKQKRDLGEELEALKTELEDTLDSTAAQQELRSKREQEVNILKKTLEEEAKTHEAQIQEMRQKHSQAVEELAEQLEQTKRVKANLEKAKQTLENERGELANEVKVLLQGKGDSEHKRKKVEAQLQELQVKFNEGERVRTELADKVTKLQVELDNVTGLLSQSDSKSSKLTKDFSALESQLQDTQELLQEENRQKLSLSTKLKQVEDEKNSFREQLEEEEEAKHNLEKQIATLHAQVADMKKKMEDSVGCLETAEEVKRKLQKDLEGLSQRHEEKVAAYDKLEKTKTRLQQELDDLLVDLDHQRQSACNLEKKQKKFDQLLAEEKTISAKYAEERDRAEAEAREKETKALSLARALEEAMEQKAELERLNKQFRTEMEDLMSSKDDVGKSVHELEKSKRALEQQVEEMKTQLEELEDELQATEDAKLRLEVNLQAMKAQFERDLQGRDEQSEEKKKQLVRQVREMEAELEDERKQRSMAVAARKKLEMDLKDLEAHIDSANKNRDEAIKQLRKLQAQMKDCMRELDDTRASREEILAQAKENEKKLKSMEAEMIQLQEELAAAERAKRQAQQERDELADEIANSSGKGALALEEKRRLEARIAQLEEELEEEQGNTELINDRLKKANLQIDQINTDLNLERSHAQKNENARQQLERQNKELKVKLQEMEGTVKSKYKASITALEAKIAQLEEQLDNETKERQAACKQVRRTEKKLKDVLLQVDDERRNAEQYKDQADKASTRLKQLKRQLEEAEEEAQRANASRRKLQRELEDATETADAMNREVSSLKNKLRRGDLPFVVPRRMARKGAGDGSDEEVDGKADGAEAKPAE

Results are given in words; binding and its absence hold for the method and conditions named. In cells and extracts the contact can be indirect. Some entries that bind do so weakly or less than the wild type.

For assay [1], the target named is USP14 (human (endogenous in LN229 and U87)) (UniProt P54578). Briefly: co-IP; endogenous proteins in lysates of U87 and LN229 cells (Pierce IP Lysis buffer with protease and phosphatase inhibitors), antibodies and magnetic beads, western blot; NAP1L1 with c-Myc also after si-MYH9 in LN229 (interaction weakened).
Assay [2] deals with T1, Nucleosome assembly protein 1 Like 1 (NAP1L1) (human (endogenous in U87 and LN229)) (UniProt P55209).
T1 sequence: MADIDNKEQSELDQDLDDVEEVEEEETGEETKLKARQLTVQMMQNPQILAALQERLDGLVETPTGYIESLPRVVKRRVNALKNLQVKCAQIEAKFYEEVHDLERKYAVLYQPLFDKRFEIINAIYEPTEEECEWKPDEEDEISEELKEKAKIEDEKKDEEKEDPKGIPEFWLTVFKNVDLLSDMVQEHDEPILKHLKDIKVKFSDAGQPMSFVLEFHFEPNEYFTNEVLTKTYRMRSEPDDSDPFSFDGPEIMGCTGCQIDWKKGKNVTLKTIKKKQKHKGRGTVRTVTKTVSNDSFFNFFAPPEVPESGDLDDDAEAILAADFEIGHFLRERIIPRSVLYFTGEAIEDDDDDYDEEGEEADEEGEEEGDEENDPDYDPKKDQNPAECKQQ
The description is as above.

Take “Myosin heavy chain 9 (MYH9) (from UniProt P35579 1-1960)”: the binding result in assay [1] and in assay [2] was “binds” in each case.
